Laboratory results as given in patent US20230310452A1, “BROMODOMAIN AND EXTRA TERMINAL DOMAIN (BET) INHIBITOR COMPOSITIONS AND METHODS THEREOF FOR USE AS ANTI-AGING AGENTS” (MDI Biological Laboratory, priority 2020, published 2023).
At least one structure is not confirmed: it was looked up by name or label, or the drawing left a doubt.

System: CGI- gene misexpression
Assay: Meta-analysis of published RNA-seq data: aging interventions and CGI- gene misexpression (FIG. 4C)
Assay type: in vivo
Details: comparison with young controls

| Compound | CGI- gene misexpression in aged tissues under anti-aging intervention |
| --- | --- |
| C[C@H]1O[C@H](O[C@H]2[C@H](O)[C@@H](O)[C@@H](O[C@H]3[C@H](O)[C@@H](O)C(O)O[C@@H]3CO)O[C@@H]2CO)[C@H](O)[C@@H](O)[C@@H]1N[C@H]1C=C(CO)[C@@H](O)[C@H](O)[C@H]1O (some centres unmarked) [acarbose] | effectively revert/suppress CGI- gene misexpression |
| CO[C@H]1C[C@@H]2CC[C@@H](C)[C@@](O)(O2)C(=O)C(=O)N2CCCC[C@H]2C(=O)O[C@H]([C@H](C)C[C@@H]2CC[C@@H](O)[C@H](OC)C2)CC(=O)[C@H](C)/C=C(\C)[C@@H](O)[C@@H](OC)C(=O)[C@H](C)C[C@H](C)/C=C/C=C/C=C/1C [rapamycin] | effectively revert/suppress CGI- gene misexpression |
